# Some of the results follow.
# B1: Gs78B-bfa-542-29-542 (Bacteroides fragilis) (protein)
# chain: SEDINRNPLLPTKEDEKMDGVIYGAYLPNLEKSVIPIGTASESTEPVNRYQIGVNLAGDAWAGYMSPRDNKFNGSKNFTNYFMYENWVNYVYSFMVTDVYSPWMQIKRISQDEGTRNDEIYALAQIIKIAALHRTTDMFGPIPYSQVGKGSFKVAYDSQESVYRSFLKELEEAVQTLDDYSNKSKEVLPAFDIVYNGDVNKWMRFANSLMLRLAIRVRFADAGLAKEYAEKAVKHPAGLINSKELAAQMGKGAGLQMKNPLKVINEEYNDTRMGATIYSYLAGYNDARAAVYFVKNNGFKAVRCGIAKSGDAYNGFTRPNVHEDDPLYWMKASEVCFLKAEGALAGFDMGGSAGDFYNAGIRMSFSENGLDNSSAETYLKDSTRKPANYTDTSNGELSANAPSSITIRWENGATEEEKLERIITQKYLAIFPNGQEAWTEWRRTGYPRQIVVAENKTNSAVLIGNGYDLGGVRRLPYPRTEYEQNGENLHNAISQYLGGVDNAATKVWWDKKSK
# Legend:
# Test in all cases: glycan array binding signal (z-score within array); higher = stronger binding
# Conditions in all cases: glycan notation: IUPAC condensed, linker removed
# [1] = molecular target: Gal(b1-3)GlcNAc(b1-6)[Gal(b1-3)]GalNAc
# Summary of the method: (§1)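 The binding signal is a Z-score computed within each array and averaged over linkers. Arrays of the same protein sequence at different concentrations or buffers were also averaged together. Data originate from 3228 arrays in the Consortium for Functional Glycomics database, kept only where the protein sequence was available.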
# Gal(b1-3)GlcNAc6S = molecular target: Gal(b1-3)GlcNAc6S
# Summary of the method: as §1
# [2] = molecular target: Gal(b1-3)[Fuc(a1-4)]GlcNAc
# Summary of the method: as §1
# [3] = molecular target: Gal(b1-3)[Fuc(a1-4)]GlcNAc(b1-2)Man
# Summary of the method: as §1
# [4] = molecular target: Gal(b1-3)[Fuc(a1-4)]GlcNAc(b1-2)Man(a1-3)[Gal(b1-3)[Fuc(a1-4)]GlcNAc(b1-2)Man(a1-6)]Man(b1-4)GlcNAc(b1-4)[Fuc(a1-6)]GlcNAc
# Summary of the method: as §1
# [5] = molecular target: Gal(b1-3)[Fuc(a1-4)]GlcNAc(b1-3)Gal(b1-3)[Fuc(a1-4)]GlcNAc
# Summary of the method: as §1
# [6] = molecular target: Gal(b1-3)[Fuc(a1-4)]GlcNAc(b1-3)Gal(b1-4)[Fuc(a1-3)]GlcNAc
# Summary of the method: as §1
# [7] = molecular target: Gal(b1-3)[Fuc(a1-4)]GlcNAc(b1-6)GalNAc
# Summary of the method: as §1
# [8] = molecular target: Gal(b1-3)[GlcNAc(b1-6)]GalNAc
# Summary of the method: as §1
# [9] = molecular target: Gal(b1-3)[Neu5Ac(a2-6)]GalNAc
# Summary of the method: as §1
# [10] = molecular target: Gal(b1-3)[Neu5Ac(a2-6)]GlcNAc(b1-4)Gal(b1-4)Glc
# Summary of the method: as §1
# [11] = molecular target: Gal(b1-3)[Neu5Ac(b2-6)]GalNAc
# Summary of the method: as §1
# Gal(b1-4)Gal = molecular target: Gal(b1-4)Gal
# Summary of the method: as §1
# [12] = molecular target: Gal(b1-4)GalNAc(a1-3)[Fuc(a1-2)]Gal(b1-4)GlcNAc
# Summary of the method: as §1
# [13] = molecular target: Gal(b1-4)GalNAc(b1-3)[Fuc(a1-2)]Gal(b1-4)GlcNAc
# Summary of the method: as §1
# Gal(b1-4)Glc = molecular target: Gal(b1-4)Glc
# Summary of the method: as §1
# Gal(b1-4)Glc6S = molecular target: Gal(b1-4)Glc6S
# Summary of the method: as §1
# Gal(b1-4)GlcNAc = molecular target: Gal(b1-4)GlcNAc
# Summary of the method: as §1
# [14] = molecular target: Gal(b1-4)GlcNAc(a1-6)Gal(b1-4)GlcNAc
# Summary of the method: as §1
# Gal(b1-4)GlcNAc(b1-2)Man = molecular target: Gal(b1-4)GlcNAc(b1-2)Man
# Summary of the method: as §1
# [15] = molecular target: Gal(b1-4)GlcNAc(b1-2)Man(a1-3)Man(b1-4)GlcNAc(b1-4)GlcNAc
# Summary of the method: as §1
# [16] = molecular target: Gal(b1-4)GlcNAc(b1-2)Man(a1-3)[Gal(b1-4)GlcNAc(b1-2)Man(a1-6)]Man(b1-4)GlcNAc(b1-4)GlcNAc
# Summary of the method: as §1
# [17] = molecular target: Gal(b1-4)GlcNAc(b1-2)Man(a1-3)[Gal(b1-4)GlcNAc(b1-2)Man(a1-6)]Man(b1-4)GlcNAc(b1-4)[Fuc(a1-6)]GlcNAc
# Summary of the method: as §1
# [18] = molecular target: Gal(b1-4)GlcNAc(b1-2)Man(a1-3)[Gal(b1-4)GlcNAc(b1-2)Man(a1-6)][Gal(b1-4)GlcNAc(b1-4)]Man(b1-4)GlcNAc(b1-4)[Fuc(a1-6)]GlcNAc
# Summary of the method: as §1
# [19] = molecular target: Gal(b1-4)GlcNAc(b1-2)Man(a1-3)[Gal(b1-4)GlcNAc(b1-2)Man(a1-6)][GlcNAc(b1-4)]Man(b1-4)GlcNAc(b1-4)[Fuc(a1-6)]GlcNAc
# Summary of the method: as §1
# [20] = molecular target: Gal(b1-4)GlcNAc(b1-2)Man(a1-3)[GlcNAc(b1-2)Man(a1-6)]Man(b1-4)GlcNAc(b1-4)GlcNAc
# Summary of the method: as §1
# [21] = molecular target: Gal(b1-4)GlcNAc(b1-2)Man(a1-3)[GlcNAc(b1-4)][Gal(b1-4)GlcNAc(b1-2)Man(a1-6)]Man(b1-4)GlcNAc(b1-4)GlcNAc
# Summary of the method: as §1
# [22] = molecular target: Gal(b1-4)GlcNAc(b1-2)Man(a1-3)[Man(a1-6)]Man(b1-4)GlcNAc(b1-4)GlcNAc
# Summary of the method: as §1
# [23] = molecular target: Gal(b1-4)GlcNAc(b1-2)Man(a1-6)Man(b1-4)GlcNAc(b1-4)GlcNAc
# Summary of the method: as §1
# [24] = molecular target: Gal(b1-4)GlcNAc(b1-2)Man(a1-6)[GlcNAc(b1-2)Man(a1-3)]Man(b1-4)GlcNAc(b1-4)GlcNAc
# Summary of the method: as §1
# [25] = molecular target: Gal(b1-4)GlcNAc(b1-2)Man(a1-6)[Man(a1-3)]Man(b1-4)GlcNAc(b1-4)GlcNAc
# Summary of the method: as §1
# [26] = molecular target: Gal(b1-4)GlcNAc(b1-2)[Gal(b1-4)GlcNAc(b1-4)]Man(a1-3)[Gal(b1-4)GlcNAc(b1-2)Man(a1-6)]Man(b1-4)GlcNAc(b1-4)GlcNAc
# Summary of the method: as §1
# [27] = molecular target: Gal(b1-4)GlcNAc(b1-2)[Gal(b1-4)GlcNAc(b1-4)]Man(a1-3)[Gal(b1-4)GlcNAc(b1-2)[Gal(b1-4)GlcNAc(b1-6)]Man(a1-6)]Man(b1-4)GlcNAc(b1-4)GlcNAc
# Summary of the method: as §1
# [28] = molecular target: Gal(b1-4)GlcNAc(b1-2)[Gal(b1-4)GlcNAc(b1-4)]Man(a1-3)[GlcNAc(b1-4)][Gal(b1-4)GlcNAc(b1-2)Man(a1-6)]Man(b1-4)GlcNAc(b1-4)GlcNAc
# Summary of the method: as §1
# [29] = molecular target: Gal(b1-4)GlcNAc(b1-2)[Gal(b1-4)GlcNAc(b1-4)]Man(a1-3)[GlcNAc(b1-4)][Gal(b1-4)GlcNAc(b1-2)[Gal(b1-4)GlcNAc(b1-6)]Man(a1-6)]Man(b1-4)GlcNAc(b1-4)GlcNAc
# Summary of the method: as §1
# [30] = molecular target: Gal(b1-4)GlcNAc(b1-2)[Gal(b1-4)GlcNAc(b1-6)]Man(a1-6)[Gal(b1-4)GlcNAc(b1-2)Man(a1-3)]Man(b1-4)GlcNAc(b1-4)GlcNAc
# Summary of the method: as §1
# [31] = molecular target: Gal(b1-4)GlcNAc(b1-2)[Gal(b1-4)GlcNAc(b1-6)]Man(a1-6)[Gal(b1-4)GlcNAc(b1-2)Man(a1-3)]Man(b1-4)GlcNAc(b1-4)[Fuc(a1-6)]GlcNAc
# Summary of the method: as §1
binder,measurement,setting,value
B1,glycan array binding signal (z-score),[1],1.47
same,glycan array binding signal (z-score),Gal(b1-3)GlcNAc6S,2.8
same,glycan array binding signal (z-score),[2],-0.728
same,glycan array binding signal (z-score),[3],-0.693
same,glycan array binding signal (z-score),[4],0.989
same,glycan array binding signal (z-score),[5],-0.682
same,glycan array binding signal (z-score),[6],-0.845
same,glycan array binding signal (z-score),[7],0.181
same,glycan array binding signal (z-score),[8],0.287
same,glycan array binding signal (z-score),[9],-0.066
same,glycan array binding signal (z-score),[10],0.135
same,glycan array binding signal (z-score),[11],-0.433
same,glycan array binding signal (z-score),Gal(b1-4)Gal,-0.04
same,glycan array binding signal (z-score),[12],-0.343
same,glycan array binding signal (z-score),[13],0.014
same,glycan array binding signal (z-score),Gal(b1-4)Glc,-0.081
same,glycan array binding signal (z-score),Gal(b1-4)Glc6S,0.336
same,glycan array binding signal (z-score),Gal(b1-4)GlcNAc,1.24
same,glycan array binding signal (z-score),[14],-0.134
same,glycan array binding signal (z-score),Gal(b1-4)GlcNAc(b1-2)Man,0.886
same,glycan array binding signal (z-score),[15],0.534
same,glycan array binding signal (z-score),[16],1.74
same,glycan array binding signal (z-score),[17],0.257
same,glycan array binding signal (z-score),[18],-0.068
same,glycan array binding signal (z-score),[19],-0.175
same,glycan array binding signal (z-score),[20],-0.582
same,glycan array binding signal (z-score),[21],-0.311
same,glycan array binding signal (z-score),[22],1.73
same,glycan array binding signal (z-score),[23],0.511
same,glycan array binding signal (z-score),[24],0.385
same,glycan array binding signal (z-score),[25],-0.01
same,glycan array binding signal (z-score),[26],0.215
same,glycan array binding signal (z-score),[27],-0.433
same,glycan array binding signal (z-score),[28],1.34
same,glycan array binding signal (z-score),[29],1.22
same,glycan array binding signal (z-score),[30],1.16
same,glycan array binding signal (z-score),[31],1.05

# Reprinted at random: two records from the list
binder,measurement,setting,value
B1,glycan array binding signal (z-score),[3],-0.693
same,glycan array binding signal (z-score),[31],1.05

# Reference: the supplement of paper PMC8728848
